Experimental data taken from the supplement of paper PMC5949888.
Most values lie at the floor of the assay. Slopes are relative: functional sequences can read slightly below zero.

Each substance was assayed on Saccharomyces cerevisiae PS128 hsf1 delta, HSF1(1-493) fusion (assay: growth estimate (transactivation domain function in HSF1 fusion, heat-shock survival) (a.u. (slope of normalised read count over time)); higher = stronger growth at 37°C, i.e. more transactivation activity). Settings: library: random library.
For PDVQISPGRYNKR, the growth estimate was less than -0.25. SVGRTRTLPPRVVASRDLSS showed a growth estimate of less than -0.25. In the case of MKDS, the growth estimate is reported as less than -0.25. With LGFGRTVSTYR the growth estimate was less than -0.25. For NTKIYVRLVLVPASWVSFPS, the growth estimate was less than -0.25. For RAWYGWGFSGGVCIPNITRR, the growth estimate was less than -0.25. With CVWTPAEGMSPPGDATAHSV the growth estimate was less than -0.25. In the case of PRRGVDGE, the growth estimate is reported as less than -0.25. For LVV, the growth estimate was less than -0.25. For ASICTFRRVGTSLTHSLRLS, the growth estimate was less than -0.25. RQGRLYTLVGKNSRSLRVPA showed a growth estimate of less than -0.25. ILFCWALQVYQAWQHILITT showed a growth estimate of less than -0.25. In the case of HLDEAGLRQSFQSRRVFFSQ, the growth estimate is reported as less than -0.25. In the case of SRDSGRGGRHHGL, the growth estimate is reported as less than -0.25. With VYNRARRSYLNTKMEEGPPS the growth estimate was less than -0.25. For STEISPPGHSQLRGS, the growth estimate was less than -0.25. Substance LRCDFAPQVVTVIQIL has a growth estimate of less than -0.25. YAS gave a growth estimate of -0.243. RSRLSGNIGFRVLNRLRCIV showed a growth estimate of less than -0.25. Work on RVYCVLRVE yielded a growth estimate of less than -0.25. AEKRPTTRLLLMPRLPNDSP was tested, and the growth estimate was less than -0.25. In the case of PIMQLTERGSRLRMYAAVNE, the growth estimate is reported as less than -0.25. PPSKLSFSLVFSQRLAFRGG gave a growth estimate of less than -0.25. RLHWVVGTSAKMAVF showed a growth estimate of less than -0.25. GVWAGRGSEGYWAKQGPVGA was tested, and the growth estimate was less than -0.25. Substance PSSQTVTPVHIIG has a growth estimate of less than -0.25. In the case of SGVSPGQSRA, the growth estimate is reported as less than -0.25. PGKGRRV showed a growth estimate of less than -0.25. With LVIYSATPFADRKVNPHDIF the growth estimate was less than -0.25. In the case of QVDVLLKLILLVKRKTVRFQ, the growth estimate is reported as less than -0.25. Work on PLGYDYWPAQMWIKASHNSP yielded a growth estimate of less than -0.25. With RIVGETVNPWTWGEMLEKAA the growth estimate was less than -0.25. Substance PMRCSIE has a growth estimate of less than -0.25. RLTATVCINSLSPRRQGKNV gave a growth estimate of less than -0.25. YGMPTVLMCTNGPIRSCMKP gave a growth estimate of less than -0.25. For RIGLELNGRGKLRVFAT, the growth estimate was less than -0.25. IEVTE was tested, and the growth estimate was less than -0.25. For NEASFAVRPGPV, the growth estimate was less than -0.25. For AERRWICGA, the growth estimate was less than -0.25. TAVCPFRRGFPTDSHREFGQ was tested, and the growth estimate was less than -0.25. With SRVSR the growth estimate was less than -0.25. With TWYRASN the growth estimate was less than -0.25. With LVRKQVCLLRGLRFPSGNL the growth estimate was less than -0.25. In the case of GKSDRGRDPQDESAGGCPRP, the growth estimate is reported as less than -0.25. For SPTGG, the growth estimate was less than -0.25. With KTVLTVDITGASSLGFLLFR the growth estimate was less than -0.25. For VSVTVRGHPRL, the growth estimate was -0.225. TFYPDGWNVRCSSLPRFVLH was tested, and the growth estimate was less than -0.25. With CLANGAVARVFRIFVQCERQ the growth estimate was less than -0.25. With HIPRRSPKVQVP the growth estimate was less than -0.25. Substance GRETRSGGLSFEILPSDNWQ has a growth estimate of less than -0.25. Work on TDAAVQFSGE yielded a growth estimate of -0.237. In the case of LVYSLGIPHPLN, the growth estimate is reported as less than -0.25. Substance DWVT has a growth estimate of less than -0.25. Substance AGTVSSCNVTPRPP has a growth estimate of less than -0.25. TDRPRVVRRCGTIFLDGLMP showed a growth estimate of less than -0.25. Substance RDQPAK has a growth estimate of less than -0.25. Substance SRV has a growth estimate of less than -0.25. RAEAQ showed a growth estimate of less than -0.25. QTDQTPNLMPIIEDEWLHSR was tested, and the growth estimate was less than -0.25. With CQEIADTIWVLCRATKCCSR the growth estimate was less than -0.25. Substance LIKCERRRDLPLAAVHWCDV has a growth estimate of less than -0.25. In the case of GSLPKKSTRGISCW, the growth estimate is reported as less than -0.25. RAPTDNVQTCRDVRLSLMDQ gave a growth estimate of less than -0.25. In the case of SPLSGS, the growth estimate is reported as less than -0.25. GRESHKKPGHRGEGVGQGLQ gave a growth estimate of less than -0.25. Work on VTKRCSERGVLRIDGNQVSA yielded a growth estimate of less than -0.25. For HLGLSSQEGNAPVLN, the growth estimate was less than -0.25. NLGIRRRRLAEIGSGRDRSR was tested, and the growth estimate was less than -0.25. In the case of NIVIVGATCDFPTQIANPPY, the growth estimate is reported as less than -0.25. Work on NTTDCDLEPTVCFVFGPPTI yielded a growth estimate of less than -0.25. With SHCVSSLIRLPMSRGNSTSG the growth estimate was less than -0.25. GGTASLGIRIRLCIPHHWTM was tested, and the growth estimate was less than -0.25. For LPD, the growth estimate was less than -0.25. For ISGVRARGKHCMSFRSQQ, the growth estimate was less than -0.25. Work on RYLYTAYCVVAGTHVSNQGV yielded a growth estimate of less than -0.25. In the case of GSRPDSRWVRQPISISLERD, the growth estimate is reported as less than -0.25. In the case of LRHGTGPWVGKREEN, the growth estimate is reported as less than -0.25. Substance LLRSISRWGRT has a growth estimate of less than -0.25.
